These are yes or no findings as the source states them, for the method shown. Binding seen in cells or lysates may run through a third protein. These calls come from enrichment with a bait or labelling near it, and not all partners need be listed. Tags and fused reporters may be left off the sequences shown.

The chains behind the UniProt entries cited, without tags or fusion partners.
UniProt Q9CQ20: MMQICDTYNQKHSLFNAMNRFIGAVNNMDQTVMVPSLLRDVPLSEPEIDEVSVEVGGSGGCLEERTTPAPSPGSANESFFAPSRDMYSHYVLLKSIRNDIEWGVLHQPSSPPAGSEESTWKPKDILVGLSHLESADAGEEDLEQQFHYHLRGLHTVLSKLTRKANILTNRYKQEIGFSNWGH
UniProt P19096: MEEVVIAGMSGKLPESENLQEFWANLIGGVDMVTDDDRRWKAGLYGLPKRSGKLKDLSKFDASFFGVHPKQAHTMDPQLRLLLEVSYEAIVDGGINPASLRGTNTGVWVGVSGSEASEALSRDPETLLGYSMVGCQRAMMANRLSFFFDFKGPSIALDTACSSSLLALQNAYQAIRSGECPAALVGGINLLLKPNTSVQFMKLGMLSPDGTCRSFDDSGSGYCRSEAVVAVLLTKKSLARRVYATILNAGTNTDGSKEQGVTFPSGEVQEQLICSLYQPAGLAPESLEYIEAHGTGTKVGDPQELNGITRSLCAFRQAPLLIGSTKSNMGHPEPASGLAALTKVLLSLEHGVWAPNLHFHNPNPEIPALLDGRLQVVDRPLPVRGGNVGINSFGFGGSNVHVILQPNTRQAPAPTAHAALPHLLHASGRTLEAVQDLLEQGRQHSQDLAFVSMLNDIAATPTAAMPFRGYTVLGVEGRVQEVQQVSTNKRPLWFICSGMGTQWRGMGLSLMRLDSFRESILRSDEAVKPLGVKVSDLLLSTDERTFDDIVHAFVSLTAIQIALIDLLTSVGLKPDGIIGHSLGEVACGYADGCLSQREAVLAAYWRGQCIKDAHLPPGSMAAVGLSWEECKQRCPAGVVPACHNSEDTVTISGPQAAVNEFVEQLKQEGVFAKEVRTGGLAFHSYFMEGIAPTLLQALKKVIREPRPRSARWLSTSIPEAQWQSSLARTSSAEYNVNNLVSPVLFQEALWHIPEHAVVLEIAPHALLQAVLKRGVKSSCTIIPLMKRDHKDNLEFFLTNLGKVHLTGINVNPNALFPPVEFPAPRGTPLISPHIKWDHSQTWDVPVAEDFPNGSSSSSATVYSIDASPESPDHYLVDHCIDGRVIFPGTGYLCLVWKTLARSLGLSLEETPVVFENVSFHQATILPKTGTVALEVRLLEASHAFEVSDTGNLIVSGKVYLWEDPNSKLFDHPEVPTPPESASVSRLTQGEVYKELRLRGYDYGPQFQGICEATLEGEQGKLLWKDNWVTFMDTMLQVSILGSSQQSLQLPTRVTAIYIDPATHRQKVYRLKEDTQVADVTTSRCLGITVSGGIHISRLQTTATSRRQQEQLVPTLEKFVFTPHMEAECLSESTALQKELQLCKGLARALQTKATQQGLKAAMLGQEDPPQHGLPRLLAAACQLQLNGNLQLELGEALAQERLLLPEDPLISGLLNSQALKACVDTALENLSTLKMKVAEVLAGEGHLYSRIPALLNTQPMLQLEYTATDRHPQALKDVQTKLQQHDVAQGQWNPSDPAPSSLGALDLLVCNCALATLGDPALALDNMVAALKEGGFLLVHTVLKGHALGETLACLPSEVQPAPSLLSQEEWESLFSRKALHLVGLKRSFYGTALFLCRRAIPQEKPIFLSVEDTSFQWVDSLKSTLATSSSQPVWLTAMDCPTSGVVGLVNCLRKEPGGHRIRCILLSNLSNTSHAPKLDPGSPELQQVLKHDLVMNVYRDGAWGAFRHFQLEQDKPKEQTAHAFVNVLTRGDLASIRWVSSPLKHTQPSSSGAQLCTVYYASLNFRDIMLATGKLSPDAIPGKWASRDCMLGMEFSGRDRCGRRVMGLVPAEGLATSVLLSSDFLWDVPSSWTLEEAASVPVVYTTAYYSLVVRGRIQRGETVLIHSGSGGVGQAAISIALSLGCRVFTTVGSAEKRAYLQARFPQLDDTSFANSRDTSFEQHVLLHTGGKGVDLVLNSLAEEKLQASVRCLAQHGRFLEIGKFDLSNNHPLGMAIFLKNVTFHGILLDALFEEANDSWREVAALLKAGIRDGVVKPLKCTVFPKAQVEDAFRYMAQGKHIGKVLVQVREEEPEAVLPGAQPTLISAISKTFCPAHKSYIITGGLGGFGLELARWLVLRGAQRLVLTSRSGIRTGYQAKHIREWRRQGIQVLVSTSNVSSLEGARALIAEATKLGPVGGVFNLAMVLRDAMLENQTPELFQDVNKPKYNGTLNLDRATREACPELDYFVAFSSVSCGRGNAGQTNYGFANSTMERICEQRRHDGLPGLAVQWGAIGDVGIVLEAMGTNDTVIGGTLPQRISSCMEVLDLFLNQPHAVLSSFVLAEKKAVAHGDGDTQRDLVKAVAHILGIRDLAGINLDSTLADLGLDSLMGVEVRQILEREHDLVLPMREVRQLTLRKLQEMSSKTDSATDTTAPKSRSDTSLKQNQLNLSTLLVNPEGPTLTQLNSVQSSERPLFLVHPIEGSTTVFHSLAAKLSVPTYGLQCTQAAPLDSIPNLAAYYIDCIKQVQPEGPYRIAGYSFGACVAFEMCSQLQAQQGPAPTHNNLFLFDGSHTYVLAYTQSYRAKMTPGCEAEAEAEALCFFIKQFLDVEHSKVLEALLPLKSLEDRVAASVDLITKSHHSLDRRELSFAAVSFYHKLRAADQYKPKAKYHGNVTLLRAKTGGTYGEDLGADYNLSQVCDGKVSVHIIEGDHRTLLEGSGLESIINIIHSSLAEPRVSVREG

In the assay the target is T1, S14-Flag (UniProt Q62264).
T1 sequence: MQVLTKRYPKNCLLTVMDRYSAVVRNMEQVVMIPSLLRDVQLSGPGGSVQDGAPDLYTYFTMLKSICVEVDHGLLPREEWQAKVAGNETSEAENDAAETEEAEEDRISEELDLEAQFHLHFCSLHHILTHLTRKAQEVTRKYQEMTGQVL
Nature of the assay: affinity purification with mass spectrometry; adenovirus expressing S14-Flag injected into mice, liver lysates 3 days later; anti-Flag immunoprecipitation; bands specific to the S14-Flag lanes (control: β-gal adenovirus) cut from silver-stained gels and analysed by LC-MS/MS.
With “MIG12, mouse liver (from UniProt Q9CQ20 1-182)”, the binding result is on record as “binds”. As for β-tubulin, mouse liver, the binding result is reported as “binds”. “fatty acid synthase (FAS), mouse liver (from UniProt P19096 1-2504) (enzyme)”: the binding entry is on record as “binds”.

Values taken from publication doi:10.64898/2025.12.30.696908.
